Patent US20080286803A1
No constants are given. Whether binding was seen depends on the method and setting. Some entries that bind do so weakly or less than the wild type.

Chains of the proteins cited; added tags and fusions are not shown. Residues count along the entry.
UniProt P11226, residues 21-248: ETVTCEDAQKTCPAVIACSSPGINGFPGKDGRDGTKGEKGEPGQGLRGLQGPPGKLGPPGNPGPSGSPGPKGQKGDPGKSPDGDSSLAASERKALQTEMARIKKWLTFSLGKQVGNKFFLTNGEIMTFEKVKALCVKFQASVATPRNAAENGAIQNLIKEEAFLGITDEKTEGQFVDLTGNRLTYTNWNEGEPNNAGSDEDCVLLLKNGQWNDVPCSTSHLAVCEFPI
UniProt O00187, residues 16-686: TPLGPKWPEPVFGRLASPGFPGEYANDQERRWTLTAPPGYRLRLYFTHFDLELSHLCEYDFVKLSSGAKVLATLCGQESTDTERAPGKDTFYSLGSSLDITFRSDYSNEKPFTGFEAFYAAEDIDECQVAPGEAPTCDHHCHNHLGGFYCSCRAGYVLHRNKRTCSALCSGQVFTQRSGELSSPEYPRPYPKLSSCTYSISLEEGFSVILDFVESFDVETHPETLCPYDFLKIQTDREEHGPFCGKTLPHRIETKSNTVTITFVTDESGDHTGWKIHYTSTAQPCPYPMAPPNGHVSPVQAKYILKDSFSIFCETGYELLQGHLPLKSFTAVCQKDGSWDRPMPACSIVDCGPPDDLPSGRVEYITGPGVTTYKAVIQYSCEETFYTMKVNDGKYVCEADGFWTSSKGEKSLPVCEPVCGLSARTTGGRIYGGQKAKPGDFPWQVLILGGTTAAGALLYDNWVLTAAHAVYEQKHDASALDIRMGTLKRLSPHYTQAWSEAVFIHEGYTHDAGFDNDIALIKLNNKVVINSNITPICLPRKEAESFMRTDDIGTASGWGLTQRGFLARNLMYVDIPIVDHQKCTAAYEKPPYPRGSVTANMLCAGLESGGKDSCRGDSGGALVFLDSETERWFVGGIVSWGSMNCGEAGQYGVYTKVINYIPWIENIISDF

Target: Mannan-Binding-Lectin (MBL) from human serum, captured on a mannan-coated plate (human) (UniProt P11226)
Test: recombinant MASP-2 added to a mannan-coated plate preloaded with diluted A/B serum; plate-bound activity read with pro-urokinase and pyro-Glu-Gly-Arg-pNA

Question: With “purified recombinant MASP-2 (active form) (from UniProt O00187 16-686) (enzyme)” as the substance, how does the binding read?
Answer: binds
